In PubChem BioAssay AID2685 (National Center for Advancing Translational Sciences (NCATS), 2010) one finds cell number change and AC50 data, which are given here for 42 compounds.

The other results are listed elsewhere or left out. The main result of the screen is listed elsewhere. These columns were measured beside it and carry no call. Compounds called inactive in the main read-out are mostly missing here. The note in brackets gives the kind of curve behind each potency; many fits are weak.

The nature of this assay: qHTS Assay for Lipid Storage Modulators in Drosophila S3 Cells.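 On cell number change: cells counted by Cell Tracker Red CMTPX staining in the red channel.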 The conditions noted are these: BODIPY lipid droplet fluorescence, 18-24 h; for cell number change: measured here: cell count max response, cells fed with added oleic acid. In short, it runs like this:
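Drosophila S3 cells loaded with oleic acid (400 uM, as added) and compounds at several concentrations; lipid droplets imaged by 488-nm laser-scanning cytometry, 500–530 nm intensity and object ratio to cell channel. Percent activity normalized to 20 uM Triacsin C.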

Where [1] appears, read: measured here: cell number channel AC50, cells fed with added oleic acid.
[2] abbreviates: measured here: lipid fluorescence (Fed channel) AC50, cells fed with added oleic acid.

In the case of `Cn1ccnc1Sc1ccc(C(N)=O)cc1[N+](=O)[O-]`, the cell number change is -3.26%. As to `N/C(=N\OC(=O)COc1ccc(Br)cc1)c1cccnc1`, the cell number change amounted to 38.3%. Also, the AC50 under setting [1] was 9.2 µM [rising, partial curve]. The AC50 under setting [2] is 29.1 µM [rising, single point]. With `CCOc1ccccc1NC(=O)Cn1nnc(C(=O)Nc2ccc(C)cc2)c1N`, the AC50 under setting [1] is 0.517 µM [rising, full curve].

For the compound `COc1cc(Nc2ncnc(N)n2)cc(OC)c1`, the cell number change was -34.4%. Moreover, the AC50 under setting [1] was 4.11 µM [falling, full curve, poor fit]. For the same compound, the AC50 under setting [2] is 3.66 µM [falling, full curve]. With `FC(F)(F)c1cccc(Oc2cc(C(F)(F)F)nc(-c3ccccn3)n2)c1`, the cell number change was found to be 6.32%. Besides, the AC50 under setting [2] is 6.51 µM [rising, single point]. For the compound `O=C(c1cccs1)N1CCCc2ccccc21`, the cell number change came out at 1.06%. For the same compound, the AC50 under setting [2] was 0.651 µM [falling, single point]. For the compound `O=C(CSc1nc(=O)[nH]c2c1CCCC2)Nc1cc(C(F)(F)F)cc(C(F)(F)F)c1`, the cell number change was -17.6%. Also, the AC50 under setting [1] is 0.13 µM [falling, full curve, poor fit].

With `CCOc1ccc(NC(=S)NN2C(C)CCCC2C)cc1` (stereo unspecified), the cell number change is -8.79%. The half-maximal activity concentration (AC50) under setting [2] is 1.46 µM [falling, partial curve, poor fit].

Turning to `Cc1cccc(C(=O)NC2CCN(CC(=O)N3CCOCC3)CC2)c1`, the cell number change was -8.24%. `O=C(Nc1ccc(F)cc1)NC1(C(=O)NCc2ccco2)CCCCC1`: the cell number change worked out at 1.33%. Moreover, under setting [2], the AC50 is 0.0058 µM [falling, full curve, poor fit]. As for `Cc1cc(C)n2nc(SCc3ccc(C#N)cc3)nc2n1`, the cell number change amounted to 16.2%.

With `CCSc1nc2c(cnn2-c2ccc(C)c(C)c2)c(=O)[nH]1`, the cell number change came out at 2.04%. Also, the AC50 under setting [2] was 0.82 µM [falling, full curve].

In the case of `O=C(c1ccco1)N1CCN(c2nnc(-c3ccccc3)c3ccccc23)CC1`, under setting [1], the AC50 is 2.59 µM [rising, partial curve]. `CSc1nc(N(C)NC(=O)c2cccc(C)c2)c2ccccc2n1`: the cell number change is -20.2%. For the same compound, the AC50 under setting [2] is 0.164 µM [falling, full curve]. `O=C(O)/C=C/C(=O)c1ccc2c(c1)NC(=O)CO2`: the cell number change turned out to be 6.4%. Take `COc1cc(NC(=O)C2CSC3(C)CCC(=O)N23)c(OC)cc1Cl` (stereo unspecified): the cell number change stood at 20.1%. Take `NS(=O)(=O)c1ccc(N/N=C/c2cn(-c3ccccc3)nc2-c2cccs2)c([N+](=O)[O-])c1`: the cell number change was 31.7%. Take `CCOC(=O)c1sc2nc(CN3CCCCC3)nc(Cl)c2c1C`: the cell number change was 31.3%. Moreover, the half-maximal activity concentration (AC50) under setting [1] is 4.11 µM [rising, full curve, poor fit].

For the compound `O=C(c1cc(COc2ccccc2)on1)N1CCCC(OCc2cccnc2)C1` (stereo unspecified), under setting [2], the AC50 was 0.82 µM [falling, full curve]. On to `CCN(CC)S(=O)(=O)c1cccc2cc(C(=O)O)c(O)cc12`, for which the cell number change is -0.512%. The AC50 under setting [2] was 0.206 µM [falling, full curve, poor fit]. For `CC(=O)NC(C)C12CC3CC(CC(C(=O)O)(C3)C1)C2` (stereo unspecified), the cell number change was -18.3%. The AC50 under setting [2] was 0.731 µM [falling, single point].

As to `COc1cc(OC)cc(C(=O)Nc2nnc(NC(=S)Nc3ccccc3)s2)c1`, the cell number change worked out at 2.57%. In addition, under setting [1], the AC50 is 6.51 µM [rising, single point]. Also, the AC50 under setting [2] is 3.26 µM [rising, single point]. As for `O=C(COc1ccccc1Cl)Nc1ccc(NC(=O)c2ccco2)cc1`, the cell number change was 6.05%. For the compound `CCOC(=O)C(=CNc1ccccc1N1CCOCC1)C(=O)OCC`, the cell number change stood at 8.72%. The AC50 under setting [2] was 6.51 µM [rising, single point]. With `COc1ccc(/C=N/NC(=O)C(=O)N2CCCCCC2)cc1`, the cell number change is -27.6%. For the compound `CC(C)OCCCn1c(SCC(=O)N2CCc3ccccc32)nc2ccccc2c1=O`, the cell number change is -30.5%. Also, the AC50 under setting [1] was 29.1 µM [falling, partial curve, poor fit]. In addition, the AC50 under setting [2] is 2.06 µM [falling, partial curve]. Take `COc1ccc(S(=O)(=O)N2CCOCC2)cc1NC(=O)Cc1cccs1`: the cell number change worked out at 8.31%. Besides, the AC50 under setting [2] is 23.1 µM [rising, single point]. `O=S(=O)(c1ccccc1)N(Cc1ccc(Cl)cc1)c1ccncc1`: the cell number change was found to be 9.4%. `CC(C)(OC(=O)c1ccc(C#N)cc1)c1cc2ccccc2c(=O)o1`: the cell number change was found to be 6.47%. Further, the AC50 under setting [1] was 0.13 µM [falling, full curve, poor fit]. Further, the AC50 under setting [2] is 0.13 µM [falling, partial curve, poor fit]. In the case of `O=C(O)CCn1ccnc1-c1ccccc1`, the cell number change was -31.6%. Besides, the AC50 under setting [1] is 3.66 µM [falling, full curve]. The AC50 under setting [2] is 3.66 µM [falling, full curve]. Regarding `Cc1cc(C)c(C(=O)COC(=O)c2nn(C)c(=O)c3ccccc23)cc1C`, the cell number change was -2.55%. Further, the AC50 under setting [1] is 2.31 µM [rising, partial curve]. Under setting [2], the AC50 was 2.59 µM [rising, partial curve, poor fit]. On to `CC1CCC2(CC1)NC(=O)N(CC(=O)N1CCN(S(=O)(=O)c3ccccc3)CC1)C2=O` (stereo unspecified), for which the cell number change is 25%. In addition, the AC50 under setting [2] is 0.116 µM [rising, full curve]. Regarding `CNC(=O)Cn1c(=O)n(C)c2ccccc21`, the cell number change was -26.7%. Besides, the AC50 under setting [2] is 18.4 µM [falling, single point].

In the case of `O=C1Nc2ccccc2C1=Nc1ccc(Br)cc1`, the cell number change was 15.2%. The same measure, in the same setting: the same measure for `CCOC(=O)c1cc2c(ccn2C)n1CC(=O)N(C)C`: -11.4%. For `COc1ccc(CCN2CCC(Nc3nc4ccccc4n3Cc3ccc(F)cc3)CC2)cc1`, the cell number change was -79%. The AC50 under setting [1] is 18.4 µM [falling, single point]. Also, the AC50 under setting [2] was 25.9 µM [falling, single point]. Take `COc1ccc(NC(=O)CSc2nc3ccccc3n2-c2ccccc2)c([N+](=O)[O-])c1`: the cell number change was 9.52%. Also, the AC50 under setting [1] is 6.51 µM [rising, single point]. In the case of `Cc1ccc2c(CC(=O)N(C)c3c(N)n(Cc4ccccc4)c(=O)[nH]c3=O)coc2c1`, the cell number change is -15.5%. In addition, the concentration at half-maximal activity (AC50) under setting [2] is 16.4 µM [falling, partial curve]. Turning to `O=C(COc1ccccc1)NC(=S)Nc1cccc([N+](=O)[O-])c1`, the cell number change was found to be 1.92%. Take `C[C@@H]([C@@H](O)c1ccccc1)N(C)C(=O)C(N)Cc1ccccc1` (stereo partly specified): the cell number change stood at 1.8%. Moreover, the AC50 under setting [2] is 11.6 µM [rising, single point]. As for `Cc1ccc(C2CC(c3ccccc3Cl)n3nc(N)nc3N2)cc1` (stereo unspecified), the cell number change came out at 8.66%. In the case of `Cc1cc(NC(=O)c2ccccc2C)ccc1NC(=O)c1ccccc1Cl`, the cell number change was found to be 7.66%. Also, under setting [2], the AC50 is 2.59 µM [rising, full curve].
